Data as given in PubChem BioAssay AID662 (National Center for Advancing Translational Sciences (NCATS), 2007).
The list shows a part of the results. Further columns of the screen follow, without active or inactive calls. Compounds called inactive in the main read-out are mostly missing here. Words in brackets tell the shape of the fitted curve; partial curves, single points and poor fits give uncertain potencies.

Assay: Cell signaling CRE-BLA (Fsk stim)
Details: CHO CRE-bla reporter (cAMP response element driving beta-lactamase), forskolin EC10, beta-lactamase ratio; measured here: 460 nm blue channel
Procedure, shortened: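 Using CellSensor CRE-bla CHO cells in Opti-MEM with 0.5% dialyzed FBS, compounds were titrated with EC10 NKH 477 for 3 h at 37 °C. CCF4 ratio (460/530 nm) gave %Activity; AC50 derived.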
In the case of `O=C(CC1(O)C(=O)Nc2ccccc21)c1ccc2c(c1)OCO2` (configuration not stated), the AC50 is reported as 0.398 µM [rising, partial curve]. For `CCn1ncc2c1C(=O)NC1c3ccccc3C(=O)N21` (configuration not stated), the AC50 was 10 µM [rising, partial curve]. With `COc1cccc(-c2nnc(N(C)C(=O)c3ccno3)s2)c1` the AC50 was 0.02 µM [falling, full curve]. With `CC[C@H](NC(=O)c1c(C)c(-c2ccccc2)nc2ccccc12)c1ccccc1` the AC50 was 7.94 µM [falling, partial curve]. In the case of `CCOC(=O)N1CCN(C(=O)Nc2ccc3nc(C)c(C)nc3c2)CC1`, the AC50 is reported as 10 µM [rising, partial curve]. For `O=C(NCCc1c[nH]c2ccccc12)C1Cc2ccccc2CN1C(=O)c1ccco1` (configuration not stated), the AC50 was 7.94 µM [falling, partial curve]. In the case of `COc1ccc(C(=O)OCCN2CCOCC2)cc1OC`, the AC50 is reported as 10 µM [rising, partial curve]. In the case of `Cc1ccccc1C(=O)Nc1ccc(Br)cn1`, the AC50 is reported as 0.316 µM [rising, partial curve]. With `Cc1[nH]nc(N=CC2=C(O)CC(c3ccco3)CC2=O)c1-c1ccccc1` (configuration not stated) the AC50 was 25.1 µM [rising, single point]. For `O=C(NCc1cccs1)[C@@H]1CSC2c3ccccc3C(=O)N21` (some centres not stated), the AC50 was 2.51 µM [falling, single point]. For `COc1ccccc1N1C(=O)CC(Nc2ccc(N3CCOCC3)cc2)C1=O` (configuration not stated), the AC50 was 0.00398 µM [falling, full curve, poor fit]. With `CC(C)Oc1ccc(C2c3c(oc4ccccc4c3=O)C(=O)N2CCCN2CCOCC2)cc1` (configuration not stated) the AC50 was 0.501 µM [rising, single point]. For `CCc1c(C)nc(SCC(=O)Nc2ccc(Br)cc2)[nH]c1=O`, the AC50 was 10 µM [rising, partial curve]. With `CCCOc1ccc(C(=O)Nc2ccc(N(C)C)cc2)cc1` the AC50 was 1.58 µM [falling, partial curve, poor fit]. With `C=CCNC(=O)C(C#N)c1nc2ccccc2nc1N1CCN(Cc2ccccc2)CC1` (configuration not stated) the AC50 was 12.6 µM [rising, partial curve]. With `N#Cc1cccc(-c2ccc3ncnc(NCc4cccs4)c3c2)c1` the AC50 was 3.98 µM [rising, single point]. In the case of `O=C(Nc1ccc(S(=O)(=O)N2CCCC2)cc1Cl)C1=COCCO1`, the AC50 is reported as 5.01 µM [rising, single point]. For `O=C(C1=C(O)C(=O)N(Cc2ccco2)C1c1cccnc1)c1cc2ccccc2o1` (configuration not stated), the AC50 was 10 µM [falling, single point]. With `Cc1nn(Cc2ccc(Cl)c(Cl)c2)c(C)c1NC(=O)c1cc(C2CC2)on1` the AC50 was 10 µM [falling, partial curve]. In the case of `COc1ccc(Br)cc1CNC(=O)C1CCCN(c2nc3ccccc3o2)C1` (configuration not stated), the AC50 is reported as 25.1 µM [rising, single point]. For `Cc1oc(C)c2c(=O)ccc3c(c12)OC(N)=C(C#N)C3c1ccccc1Cl` (configuration not stated), the AC50 was 20 µM [rising, partial curve]. For `COc1ccccc1-c1cc(Nc2ccn[nH]2)ncn1`, the AC50 was 15.8 µM [rising, partial curve]. For `COc1cccc(-c2ccc3ncnc(NCCNC(C)=O)c3c2)c1`, the AC50 was 6.31 µM [rising, partial curve]. In the case of `Cc1nc2cnc(Nc3ccccc3)nc2n(CCc2ccccc2)c1=O`, the AC50 is reported as 15.8 µM [rising, partial curve]. In the case of `O=C(NCc1ccco1)c1noc2c1CCCCC2`, the AC50 is reported as 2.51 µM [falling, single point]. For `CCOC(=O)c1c(C)[nH]c(C(=O)C(C)OC(=O)c2cccc(OCc3c(C)noc3C)c2)c1C` (configuration not stated), the AC50 was 3.98 µM [falling, full curve]. In the case of `FC(F)(F)c1nnc2ccc(NCn3nnc4ccccc43)nn12`, the AC50 is reported as 15.8 µM [rising, partial curve]. For `Cc1cc(C)nc(NC(=NCc2ccc3c(c2)OCO3)NC(=O)Nc2ccccc2)n1`, the AC50 was 10 µM [rising, partial curve]. For `Cc1ccccc1CS(=O)(=O)Cc1ccc(C(=O)NCc2ccccn2)o1`, the AC50 was 2 µM [falling, partial curve]. In the case of `CCOC(=O)N1CCN(C(=O)c2ccc(CN(c3ccc(C)c(C)c3)S(C)(=O)=O)cc2)CC1`, the AC50 is reported as 20 µM [falling, single point]. With `O=C(C1CCCN(S(=O)(=O)c2cccc3cccnc23)C1)N1CCN(c2ccc(F)cc2)CC1` (configuration not stated) the AC50 was 7.94 µM [falling, partial curve]. For `O=c1c(-c2ccc(Cl)cc2)nc2cnc(N3CCNCC3)nc2n1-c1ccccc1`, the AC50 was 1.58 µM [rising, full curve]. For `Cc1cc(C)nc(SCc2nnc(SCC(=O)OC3CCCCC3)o2)n1`, the AC50 was 25.1 µM [rising, single point]. In the case of `Cc1ccc(C)c(N2CCN(S(=O)(=O)c3ccc4c(c3)CCC(=O)N4)CC2)c1`, the AC50 is reported as 2.51 µM [rising, partial curve]. In the case of `CCOC(=O)c1ccc(N2C(=O)c3n[nH]c(C)c3C2c2cccnc2)cc1` (configuration not stated), the AC50 is reported as 25.1 µM [rising, single point]. In the case of `CCCC(=O)NCCc1c2n(c3ccc(OC)cc13)Cc1ccccc1-2`, the AC50 is reported as 25.1 µM [rising, single point]. With `NC(=O)C[C@@H]1N[C@]2(C(=O)Nc3ccccc32)[C@@H]2C(=O)N(c3cc(C(F)(F)F)ccc3Cl)C(=O)[C@H]12` the AC50 was 0.00398 µM [falling, full curve, poor fit]. In the case of `c1cncc(-c2nc(NCCN3CCOCC3)c3ccccc3n2)c1`, the AC50 is reported as 12.6 µM [rising, partial curve]. With `O=C(c1cccs1)c1no[n+]([O-])c1C(=O)c1cccs1` the AC50 was 10 µM [falling, partial curve]. For `Cc1ccc(-n2c(=O)cc(N3CC(C)CC(C)C3)[nH]c2=O)cc1` (configuration not stated), the AC50 was 25.1 µM [rising, single point]. In the case of `CCC(Oc1ccccc1)C(=O)Nc1nc2ccccc2[nH]1` (configuration not stated), the AC50 is reported as 5.01 µM [falling, single point]. With `COc1ccc(NC(=O)CCC2COc3ccccc3O2)c(OC)c1` (configuration not stated) the AC50 was 5.01 µM [falling, single point]. For `COc1ccc(NC(=O)c2ccccc2NS(C)(=O)=O)cc1OC`, the AC50 was 10 µM [rising, single point]. In the case of `CCc1nnc(NC(=O)CCC(=O)NC2CCCCC2)s1`, the AC50 is reported as 5.01 µM [falling, full curve, poor fit]. For `COc1ccc(-c2cn3cccnc3n2)cc1NC(=O)c1ccc(Br)o1`, the AC50 was 10 µM [rising, single point]. With `COc1ccc(Nc2nc(N)nc(SCc3nnc(C)s3)n2)cc1` the AC50 was 12.6 µM [rising, single point]. In the case of `Cc1nn(C)c(C)c1S(=O)(=O)N1CCc2ccccc21`, the AC50 is reported as 0.02 µM [falling, full curve]. With `c1ccc(-c2nnc(CSc3nnc(-c4cccs4)o3)o2)cc1` the AC50 was 5.01 µM [falling, partial curve]. In the case of `COCCn1c(=O)c(-c2ccccc2)nc2cnc(Nc3ccccc3)nc21`, the AC50 is reported as 7.94 µM [rising, partial curve]. With `COc1ccc(C2C(C(=O)N3CCOCC3)CCC(=O)N2c2ccc(OC)cc2)cc1` (configuration not stated) the AC50 was 0.126 µM [falling, full curve, poor fit]. In the case of `COc1ccc(CCNc2oc(-c3ccccc3OC)nc2C#N)cc1OC`, the AC50 is reported as 12.6 µM [rising, partial curve]. With `O=C(c1ccc(COc2ccc3c(c2)CCC3)o1)N1CCN(c2ccccc2)CC1` the AC50 was 3.16 µM [rising, single point]. For `CCn1cc(C(=O)N2CCn3c(nc4ccccc43)C2)c(=O)c2ccc(C)nc21`, the AC50 was 7.94 µM [rising, partial curve]. With `N#CC(c1nc2ccccc2nc1N1CCCC1)S(=O)(=O)c1cccs1` (configuration not stated) the AC50 was 10 µM [rising, single point]. With `N#CCCN(C1CCCCC1)S(=O)(=O)CCOc1ccccc1` the AC50 was 25.1 µM [rising, single point]. With `Oc1ccc(Cl)cc1/C=N/c1nc2ccccc2[nH]1` the AC50 was 0.398 µM [rising, partial curve]. In the case of `COc1cc(-c2nnc(-c3ccncc3)o2)ccc1OCc1ccccc1`, the AC50 is reported as 25.1 µM [falling, single point]. With `COc1cc(S(=O)(=O)N2CCN(c3ccccc3F)CC2)ccc1Cl` the AC50 was 6.31 µM [falling, partial curve, poor fit]. In the case of `CCCOc1nc(N)c(C#N)c(-c2ccccc2F)c1C#N`, the AC50 is reported as 5.01 µM [rising, full curve]. For `CCNc1ncc2nc(-c3ccccc3)c(=O)n(-c3ccc(OC)cc3)c2n1`, the AC50 was 10 µM [rising, partial curve]. For `CCC(c1nnnn1Cc1cccs1)N1CCN(c2nc3ccccc3s2)CC1` (configuration not stated), the AC50 was 15.8 µM [falling, single point]. With `Cn1nc(-c2ccc(Cl)cc2)c2cc(C(=O)NCc3ccco3)sc21` the AC50 was 12.6 µM [rising, partial curve]. With `Cc1ccc(S(=O)(=O)N2CCC(C(=O)OCC(=O)N3CCc4ccccc43)CC2)cc1` the AC50 was 3.98 µM [falling, single point]. In the case of `C[C@H](NC[C@H](O)CP(=O)(O)CC1CCCCC1)c1ccc(Cl)c(Cl)c1`, the AC50 is reported as 25.1 µM [falling, single point]. With `CN(C)c1ccc(C2C=C(c3ccc(Cl)cc3OC(F)F)Nc3ncnn32)cc1` (configuration not stated) the AC50 was 15.8 µM [rising, partial curve]. For `COCCN1CN=C(Nc2nc3ccccc3s2)NC1`, the AC50 was 12.6 µM [falling, single point]. For `N#Cc1c(N)nc2c(c1-c1ccco1)CCCCC2`, the AC50 was 10 µM [rising, partial curve].
